Experimental data from paper PMC7304647.
No constants are given. Whether binding was seen depends on the method and setting. For part of these data: In cells and extracts the contact can be indirect. Some binding calls cover weakened binding; strength is not graded here.

T1: AtSCC4 (BiFC construct) (Arabidopsis) (UniProt Q9FGN7)
T1 sequence: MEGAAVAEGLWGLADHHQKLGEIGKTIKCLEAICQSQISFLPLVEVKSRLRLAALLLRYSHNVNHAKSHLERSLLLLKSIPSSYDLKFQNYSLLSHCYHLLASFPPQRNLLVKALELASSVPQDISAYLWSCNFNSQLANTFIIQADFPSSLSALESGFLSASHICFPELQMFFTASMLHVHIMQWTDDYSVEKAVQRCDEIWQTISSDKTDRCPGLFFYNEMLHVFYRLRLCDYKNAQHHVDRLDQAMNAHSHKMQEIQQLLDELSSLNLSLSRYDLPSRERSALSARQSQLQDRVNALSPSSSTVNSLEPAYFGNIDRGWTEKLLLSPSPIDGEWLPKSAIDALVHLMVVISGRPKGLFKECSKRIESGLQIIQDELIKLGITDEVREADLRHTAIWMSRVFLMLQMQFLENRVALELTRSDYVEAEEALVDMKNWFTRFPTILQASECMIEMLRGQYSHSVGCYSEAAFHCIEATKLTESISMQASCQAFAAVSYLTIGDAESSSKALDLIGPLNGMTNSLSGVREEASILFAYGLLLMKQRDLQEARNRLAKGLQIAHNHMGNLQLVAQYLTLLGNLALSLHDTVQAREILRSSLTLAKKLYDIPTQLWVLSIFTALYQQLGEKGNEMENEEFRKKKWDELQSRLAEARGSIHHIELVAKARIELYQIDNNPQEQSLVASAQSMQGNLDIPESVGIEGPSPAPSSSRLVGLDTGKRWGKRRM

T2: AtSCC4 (yeast two-hybrid construct) (Arabidopsis) (UniProt Q9FGN7)
T2 sequence: T1 sequence

B1: AtSCC2N1 (1–254 aa) (domain or fragment, UniProt A5HEI1 1-254)
chain: MSNPSSSGLGSSSGLTHFGIGLANTVQSEVTPYLPLPSLPIFCGAAEPGEFKLFDEVGQGSGYRSLDRSEILAQSSRIANMLHETDVSYLDLRNEARAPDCNSGEHFQLYDLVLRCNPGAFEYVTPGPTCDPLFTNEGPQKIISEPSVPVKMQRQTDTHLARSIEPEPVKRVLRPNHVEDHSWQHETLTNQSPKDVTAYDSRPETITMNELSASKKPKGKKKRKDDLSSVQPDPSVLQESIVQNFCEMLEDFCG
B2: AtSCC2N2 (255–427 aa) (domain or fragment, UniProt A5HEI1 255-427)
chain: RAEVPGDDRDEAEWSSVPVDEVRVLINELMTIRSKMLLHMVPVDILSRLLRTLDHQIHRAEGLSIYSEHSDSDSVLLVLGALESIHASLAVMANSDMPKQLYKEEIIERILEFSRHQMMAVMSAYDPSYRTGSKPAENLAFEGDDDDDNPDHDMGSASKRRRIVKNSKVKKAS

Key:
[1] = biological target: T1, AtSCC4 (BiFC construct) (Arabidopsis); assay: split reporter; bimolecular fluorescence complementation (BiFC) in tobacco cells
[2] = biological target: T2, AtSCC4 (yeast two-hybrid construct) (Arabidopsis); assay: two-hybrid; yeast two-hybrid of AtSCC2 N-terminal constructs with AtSCC4; bait and prey not told

Molecule | binding [1] | binding [2]
AtSCC2 (BiFC construct) (from UniProt A5HEI1 1-1846) | binds | –
B1 | – | binds
B2 | – | no binding
